From PMC3041725
These are yes or no findings as the source states them, for the method shown. Binding seen in cells or lysates may run through a third protein. Some entries that bind do so weakly or less than the wild type. Where a sequence is shown, tags or fusion partners need not be part of it. Each block holds one binder with its values, some of them ahead of it.

Protein sequences, listed by entry. Tags and fused reporters are not part of them.
UniProt P29555: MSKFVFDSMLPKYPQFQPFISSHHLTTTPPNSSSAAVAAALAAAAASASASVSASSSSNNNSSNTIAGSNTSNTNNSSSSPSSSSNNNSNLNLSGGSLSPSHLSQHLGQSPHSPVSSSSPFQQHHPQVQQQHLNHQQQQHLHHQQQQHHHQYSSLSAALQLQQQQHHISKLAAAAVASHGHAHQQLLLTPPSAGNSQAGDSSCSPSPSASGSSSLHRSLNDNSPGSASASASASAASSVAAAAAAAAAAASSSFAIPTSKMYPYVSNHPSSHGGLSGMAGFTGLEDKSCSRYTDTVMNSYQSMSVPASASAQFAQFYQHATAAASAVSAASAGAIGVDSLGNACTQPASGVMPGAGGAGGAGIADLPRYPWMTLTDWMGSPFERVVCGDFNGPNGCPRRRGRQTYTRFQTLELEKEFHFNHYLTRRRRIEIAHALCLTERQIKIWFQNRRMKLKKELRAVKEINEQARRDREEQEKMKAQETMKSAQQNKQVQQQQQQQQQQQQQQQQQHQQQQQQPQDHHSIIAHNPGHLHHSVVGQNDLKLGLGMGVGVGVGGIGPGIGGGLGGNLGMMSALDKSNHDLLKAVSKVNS

Key:
[1] = target: VC-AbdA fusion protein, expressed in Drosophila embryos (Drosophila melanogaster) (UniProt P29555); assay: split reporter; split Venus (VN 1-173, VC 155-238) BiFC in living Drosophila embryos; fusion proteins expressed by UAS/Gal4 (abdA-Gal4, en-Gal4, btl-Gal4 and others); embryos kept at 4°C for 28 h before confocal imaging
[2] = target: VN-AbdA fusion protein, expressed in Drosophila embryos (Drosophila melanogaster) (UniProt P29555); assay: split reporter; competition against split Venus BiFC in living Drosophila embryos: an unfused ('cold') protein co-expressed with the two fusion proteins
[3] = target: VC-AbdA fusion protein, expressed in Drosophila embryos (Drosophila melanogaster) (UniProt P29555); assay: as above

binding [1]: binds
B1: Tsh-VN fusion protein (Teashirt), expressed in Drosophila embryos (protein, UniProt P22265 1-954)
chain: MLHEALMLEIYRQALNAGALPTARPRSTESANSSERCPSHDSNSSEHGGGAGSGGVGHRLDAAALSTGVMPGEGPTTLHSSFPAVPQSLPSQPPSMEAYLHMVAAAAQQYGFPLAAAAAAGAGPRLPLPLANEAAAPFKLPPQASPTASSNNSEALDFRTNLYGRAESAEPPASEGEEEEFDDGANNPLDLSVGTRKRGHESEPQLGHIQVKKMFKSDSPPANSVASPSASQLLPGVNPYLAAVAAANIFRAGQFPDWNSKNDLVVDPLEKMSDIVKGGASGMGTKEKMHSSKATTPQAASQPPKSPVQPTPNQNSESGGGSGGGAAGSGAVTKARHNIWQSHWQNKGVASSVFRCVWCKQSFPTLEALTTHMKDSKHCGVNVPPFGNLPSNNPQPQHHHPTPPPPPQNHNLRKHSSGSASNHSPSANVKNAFQYRGDPPTPLPRKLVRGQNVWLGKGVEQAMQILKCMRCGESFRSLGEMTKHMQETQHYTNILSQEQSISIKSGNANANSDAKESHNSLSSEESRTLSAVLTCKVCDKAFNSLGDLSNHMAKNNHYAEPLLQSAGARKRPAPKKREKSLPVRKLLEMKGGSGTTQEDHSNEKTSVQGKPGLGPGGGDKNDAALFAERMRQYITGVKAPEEIAKVAAAQLLAKNKSPELVEQKNGGSAKAAGASSVLSAIEQMFTTSFDTPPRHASLPASSPSNSSTKNTSPVASSILKRLGIDETVDYNKPLIDTNDPYYQHYRYTSSERSGSECSAEARPRLDAPTPEKQQQGGGHDEESSKPAIKQEREAESKPVKMEIKSEFVDEPNEAEETSKMEAAVVNGSATNNNNNIVERSSPKTPSSAASPQTRLLPPRSPAESQRSVTPKSPASSHKSYDGSSEGTKKFPSDSLNALSSMFDSLGSSGAGANSRAKLAAAAAAGGSESPENLTAGGNSLAALRQFCVKKEKTA

binding [2]: binds
binding [3]: binds
B2: Teashirt (Tsh), wild-type, not fused to a Venus fragment, expressed in Drosophila embryos (protein, UniProt P22265 1-954)
chain: B1 chain

binding [1]: binds
B3: VN-Bin fusion protein (Biniou), expressed in Drosophila embryos (protein, UniProt Q9VS05 1-676)
chain: MIKSEEASDRSVMTMDQLGGYYHDPRAHPPFSHPHAHSHPHQHTHTGHPYRAGNLLTGGNYQAMGGGESPTELIDEKPNIGYMELKHYMDATPTATPVSAAQHYSLSALHSMGTPPASSSPIPPYGVLMTAHSAGSASPQSNSKTPTDLPQDLQYASSSTSTAKVQPLQVQLQPLNHQYASTIKYCSNNTILSANDYQLLTSQEQAGQQQPQQLPAQQLQHSPGGGYMSRISTSPSQVISNAHGMPVLNYSSSSSSPAKSLNGSESSPPSQNHLENKVSGSAVVGTGGSSQQDAPSTPDTTKKSGTRRPEKPALSYINMIGHAIKESPTGKLTLSEIYAYLQKSYEFFRGPYVGWKNSVRHNLSLNECFKKLPKGMGVGKPGKGNYWTIDENSAHLFEDEGSLRRRPRGYRSKIKVKPYAGHANGYYASGYGDAGMDNGNYYASPAFASYDYSAAGATGVSPAGGQGFADPWNAHAAHSGSSSVGVGMGVGPLPQYTNISCLAAGGNVNGSATTPPLAHSALGMAPSASSSSSPLGAAATLQSDYAPTASLVAAGYSYATSAGSLDNGLRSISLQQLPGLSSIQHAQAQAQAQAHHHHHQHHASHPSHSHQGHGSMHQNHGTSSTTPPPSQSGGSHGIDHSPIDRKPAYLPPISPPPMMVALNGGGGYYEGLKYAN
